Source: the supplement of paper PMC12823440, “Inhibitors supercharge kinase turnover through native proteolytic circuits” (Nature, 2025)
Some of the results follow. Hit calls seldom repeat between salt and free forms of one compound.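 Kinases, fused to nanoluciferase, were expressed in K562 cells; luminescence was measured every 4 h from 2 to 18 h as percent of control (DMSO = 100%, positive control = 0%). A time point is decreased if signal falls significantly (2 sigma). Hits were called by the authors by a rule that is not shown; the count of time points alone does not decide it.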

By UniProt entry, the sequences of proteins in these tests, tags left out. Where a name states a change or a piece, a line headed by the entry shows the natural chain unless it says otherwise.
UniProt P00519, whole entry: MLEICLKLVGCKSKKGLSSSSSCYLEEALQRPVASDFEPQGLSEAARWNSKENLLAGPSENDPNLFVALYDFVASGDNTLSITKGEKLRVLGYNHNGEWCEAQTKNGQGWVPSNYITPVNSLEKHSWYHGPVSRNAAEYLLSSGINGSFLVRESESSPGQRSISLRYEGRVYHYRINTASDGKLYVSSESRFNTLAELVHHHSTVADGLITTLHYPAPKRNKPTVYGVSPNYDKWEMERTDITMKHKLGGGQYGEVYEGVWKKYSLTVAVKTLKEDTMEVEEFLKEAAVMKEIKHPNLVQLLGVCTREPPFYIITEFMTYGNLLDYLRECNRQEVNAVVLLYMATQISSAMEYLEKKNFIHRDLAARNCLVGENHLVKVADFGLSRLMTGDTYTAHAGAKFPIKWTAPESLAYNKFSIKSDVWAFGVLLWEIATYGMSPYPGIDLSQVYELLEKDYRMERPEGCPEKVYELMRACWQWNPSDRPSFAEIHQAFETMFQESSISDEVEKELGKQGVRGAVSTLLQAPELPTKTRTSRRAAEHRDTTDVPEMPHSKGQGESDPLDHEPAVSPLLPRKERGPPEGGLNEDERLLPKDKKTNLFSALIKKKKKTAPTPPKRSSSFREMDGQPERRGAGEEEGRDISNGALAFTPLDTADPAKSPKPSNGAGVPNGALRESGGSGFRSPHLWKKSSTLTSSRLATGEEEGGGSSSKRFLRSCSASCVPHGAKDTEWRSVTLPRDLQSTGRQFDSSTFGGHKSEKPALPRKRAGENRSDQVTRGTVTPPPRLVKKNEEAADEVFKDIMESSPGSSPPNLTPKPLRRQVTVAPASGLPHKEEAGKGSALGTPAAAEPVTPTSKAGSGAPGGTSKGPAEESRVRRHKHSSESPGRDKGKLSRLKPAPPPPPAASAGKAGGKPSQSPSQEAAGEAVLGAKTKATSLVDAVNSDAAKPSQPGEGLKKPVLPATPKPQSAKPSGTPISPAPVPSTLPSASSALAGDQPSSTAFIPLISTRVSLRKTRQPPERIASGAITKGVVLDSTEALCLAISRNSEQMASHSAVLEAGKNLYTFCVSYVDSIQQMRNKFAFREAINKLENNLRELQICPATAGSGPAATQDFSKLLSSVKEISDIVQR
UniProt P31749: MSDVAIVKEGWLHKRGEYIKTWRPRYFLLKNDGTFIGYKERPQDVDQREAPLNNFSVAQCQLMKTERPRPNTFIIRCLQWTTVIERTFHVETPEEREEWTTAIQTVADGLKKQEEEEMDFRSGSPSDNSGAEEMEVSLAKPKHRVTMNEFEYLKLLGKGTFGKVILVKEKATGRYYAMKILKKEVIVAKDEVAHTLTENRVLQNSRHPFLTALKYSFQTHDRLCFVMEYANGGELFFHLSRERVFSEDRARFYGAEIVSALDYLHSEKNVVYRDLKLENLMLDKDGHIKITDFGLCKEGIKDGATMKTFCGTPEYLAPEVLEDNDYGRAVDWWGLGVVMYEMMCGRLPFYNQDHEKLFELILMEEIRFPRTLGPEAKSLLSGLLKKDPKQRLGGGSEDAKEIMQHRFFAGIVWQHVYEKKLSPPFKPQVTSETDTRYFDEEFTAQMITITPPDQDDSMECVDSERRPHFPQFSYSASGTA
UniProt Q9UM73: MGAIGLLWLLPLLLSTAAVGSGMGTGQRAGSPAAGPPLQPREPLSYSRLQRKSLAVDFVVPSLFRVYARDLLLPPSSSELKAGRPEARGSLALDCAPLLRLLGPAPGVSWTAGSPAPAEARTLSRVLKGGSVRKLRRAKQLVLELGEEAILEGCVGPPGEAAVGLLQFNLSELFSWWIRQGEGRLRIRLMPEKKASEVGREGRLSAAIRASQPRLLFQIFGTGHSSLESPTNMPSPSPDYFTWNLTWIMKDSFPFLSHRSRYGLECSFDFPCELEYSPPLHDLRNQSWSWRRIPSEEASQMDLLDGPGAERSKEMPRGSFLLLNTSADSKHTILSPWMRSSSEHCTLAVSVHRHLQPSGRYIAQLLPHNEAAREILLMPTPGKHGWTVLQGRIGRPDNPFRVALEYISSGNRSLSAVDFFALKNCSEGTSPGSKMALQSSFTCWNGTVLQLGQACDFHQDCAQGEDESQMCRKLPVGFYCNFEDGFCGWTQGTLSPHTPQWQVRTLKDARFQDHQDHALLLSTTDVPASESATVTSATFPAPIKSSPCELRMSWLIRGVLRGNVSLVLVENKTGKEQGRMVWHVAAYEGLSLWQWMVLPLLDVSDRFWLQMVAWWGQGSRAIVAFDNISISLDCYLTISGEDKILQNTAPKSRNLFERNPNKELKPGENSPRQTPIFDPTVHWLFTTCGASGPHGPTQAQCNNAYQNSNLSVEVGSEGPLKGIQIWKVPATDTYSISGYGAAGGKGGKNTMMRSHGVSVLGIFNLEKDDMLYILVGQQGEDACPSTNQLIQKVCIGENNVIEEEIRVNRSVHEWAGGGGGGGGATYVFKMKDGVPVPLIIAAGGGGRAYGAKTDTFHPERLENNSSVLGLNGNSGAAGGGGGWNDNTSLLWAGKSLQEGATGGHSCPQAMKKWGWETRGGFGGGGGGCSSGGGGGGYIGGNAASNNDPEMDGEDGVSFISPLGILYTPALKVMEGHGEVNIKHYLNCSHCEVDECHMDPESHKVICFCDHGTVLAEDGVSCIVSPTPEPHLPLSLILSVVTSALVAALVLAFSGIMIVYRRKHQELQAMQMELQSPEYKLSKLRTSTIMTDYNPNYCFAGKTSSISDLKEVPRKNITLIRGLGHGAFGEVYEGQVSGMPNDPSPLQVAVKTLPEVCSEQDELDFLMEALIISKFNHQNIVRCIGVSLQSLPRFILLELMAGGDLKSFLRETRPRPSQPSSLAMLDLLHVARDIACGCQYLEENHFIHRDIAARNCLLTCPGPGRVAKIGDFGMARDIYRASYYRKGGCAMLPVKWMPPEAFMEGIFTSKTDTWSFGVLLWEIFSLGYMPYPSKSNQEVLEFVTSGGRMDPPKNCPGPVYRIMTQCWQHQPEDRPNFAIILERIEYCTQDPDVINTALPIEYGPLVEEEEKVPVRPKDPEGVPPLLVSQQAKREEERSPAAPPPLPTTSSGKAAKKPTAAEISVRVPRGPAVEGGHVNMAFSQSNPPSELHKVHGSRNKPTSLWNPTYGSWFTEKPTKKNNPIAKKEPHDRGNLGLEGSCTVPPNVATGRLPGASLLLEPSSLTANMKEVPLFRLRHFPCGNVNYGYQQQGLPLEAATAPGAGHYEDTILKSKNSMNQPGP
UniProt P10398: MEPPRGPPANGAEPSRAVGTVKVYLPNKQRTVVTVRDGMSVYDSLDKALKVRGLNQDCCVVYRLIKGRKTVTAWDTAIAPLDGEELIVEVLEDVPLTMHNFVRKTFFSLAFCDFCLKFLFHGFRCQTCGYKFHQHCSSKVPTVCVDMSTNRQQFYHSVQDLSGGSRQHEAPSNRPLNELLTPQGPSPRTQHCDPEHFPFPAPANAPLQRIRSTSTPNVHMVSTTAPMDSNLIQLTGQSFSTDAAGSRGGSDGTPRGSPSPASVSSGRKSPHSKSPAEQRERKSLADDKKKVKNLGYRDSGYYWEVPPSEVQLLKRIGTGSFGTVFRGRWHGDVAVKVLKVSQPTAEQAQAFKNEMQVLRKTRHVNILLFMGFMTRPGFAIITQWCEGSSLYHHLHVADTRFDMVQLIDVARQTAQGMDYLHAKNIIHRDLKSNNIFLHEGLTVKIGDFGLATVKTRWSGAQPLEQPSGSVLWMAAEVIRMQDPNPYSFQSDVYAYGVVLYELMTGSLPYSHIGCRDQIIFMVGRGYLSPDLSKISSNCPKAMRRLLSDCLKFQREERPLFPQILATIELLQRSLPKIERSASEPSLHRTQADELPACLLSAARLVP
UniProt O14965: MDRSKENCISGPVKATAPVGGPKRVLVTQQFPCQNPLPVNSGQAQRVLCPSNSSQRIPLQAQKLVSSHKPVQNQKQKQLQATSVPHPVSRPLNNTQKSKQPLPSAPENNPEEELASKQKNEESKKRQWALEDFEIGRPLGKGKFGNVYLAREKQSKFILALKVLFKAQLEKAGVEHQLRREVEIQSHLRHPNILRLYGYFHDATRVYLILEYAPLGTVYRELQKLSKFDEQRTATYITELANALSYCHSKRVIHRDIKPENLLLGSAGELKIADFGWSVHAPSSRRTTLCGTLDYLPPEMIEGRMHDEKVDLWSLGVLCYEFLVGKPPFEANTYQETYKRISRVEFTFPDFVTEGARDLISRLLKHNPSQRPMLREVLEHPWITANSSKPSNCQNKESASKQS
UniProt Q96GD4, whole entry: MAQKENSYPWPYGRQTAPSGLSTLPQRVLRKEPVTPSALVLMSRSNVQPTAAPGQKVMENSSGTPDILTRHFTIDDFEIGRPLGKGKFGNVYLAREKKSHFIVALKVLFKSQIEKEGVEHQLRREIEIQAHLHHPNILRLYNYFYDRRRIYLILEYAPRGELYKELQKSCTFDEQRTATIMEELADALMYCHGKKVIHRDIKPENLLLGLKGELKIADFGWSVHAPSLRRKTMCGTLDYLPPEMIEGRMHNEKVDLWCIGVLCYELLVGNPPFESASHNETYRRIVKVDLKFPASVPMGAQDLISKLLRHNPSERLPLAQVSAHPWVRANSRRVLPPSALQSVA
UniProt Q9UQB9: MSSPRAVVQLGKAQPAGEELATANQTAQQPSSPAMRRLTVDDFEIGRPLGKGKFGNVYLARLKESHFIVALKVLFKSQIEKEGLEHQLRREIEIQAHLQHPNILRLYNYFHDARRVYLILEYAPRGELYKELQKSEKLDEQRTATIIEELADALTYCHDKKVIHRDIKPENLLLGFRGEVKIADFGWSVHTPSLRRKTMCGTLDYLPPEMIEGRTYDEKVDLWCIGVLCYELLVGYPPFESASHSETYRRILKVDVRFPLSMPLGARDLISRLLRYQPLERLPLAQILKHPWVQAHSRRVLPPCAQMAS
UniProt P51451: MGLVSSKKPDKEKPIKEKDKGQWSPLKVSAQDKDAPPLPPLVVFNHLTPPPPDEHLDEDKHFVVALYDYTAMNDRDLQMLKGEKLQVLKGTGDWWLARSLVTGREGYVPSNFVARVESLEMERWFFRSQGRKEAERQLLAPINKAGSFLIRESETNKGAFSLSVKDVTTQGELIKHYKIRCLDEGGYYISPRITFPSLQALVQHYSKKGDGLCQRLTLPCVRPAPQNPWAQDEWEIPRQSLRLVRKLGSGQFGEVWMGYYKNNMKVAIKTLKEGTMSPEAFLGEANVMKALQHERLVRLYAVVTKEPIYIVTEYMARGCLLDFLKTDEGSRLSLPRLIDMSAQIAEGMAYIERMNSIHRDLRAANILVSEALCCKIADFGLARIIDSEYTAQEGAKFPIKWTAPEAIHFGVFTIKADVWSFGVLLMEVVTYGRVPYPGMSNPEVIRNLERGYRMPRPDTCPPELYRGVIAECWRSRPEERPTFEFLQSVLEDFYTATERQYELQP
UniProt P15056, whole entry, looked up: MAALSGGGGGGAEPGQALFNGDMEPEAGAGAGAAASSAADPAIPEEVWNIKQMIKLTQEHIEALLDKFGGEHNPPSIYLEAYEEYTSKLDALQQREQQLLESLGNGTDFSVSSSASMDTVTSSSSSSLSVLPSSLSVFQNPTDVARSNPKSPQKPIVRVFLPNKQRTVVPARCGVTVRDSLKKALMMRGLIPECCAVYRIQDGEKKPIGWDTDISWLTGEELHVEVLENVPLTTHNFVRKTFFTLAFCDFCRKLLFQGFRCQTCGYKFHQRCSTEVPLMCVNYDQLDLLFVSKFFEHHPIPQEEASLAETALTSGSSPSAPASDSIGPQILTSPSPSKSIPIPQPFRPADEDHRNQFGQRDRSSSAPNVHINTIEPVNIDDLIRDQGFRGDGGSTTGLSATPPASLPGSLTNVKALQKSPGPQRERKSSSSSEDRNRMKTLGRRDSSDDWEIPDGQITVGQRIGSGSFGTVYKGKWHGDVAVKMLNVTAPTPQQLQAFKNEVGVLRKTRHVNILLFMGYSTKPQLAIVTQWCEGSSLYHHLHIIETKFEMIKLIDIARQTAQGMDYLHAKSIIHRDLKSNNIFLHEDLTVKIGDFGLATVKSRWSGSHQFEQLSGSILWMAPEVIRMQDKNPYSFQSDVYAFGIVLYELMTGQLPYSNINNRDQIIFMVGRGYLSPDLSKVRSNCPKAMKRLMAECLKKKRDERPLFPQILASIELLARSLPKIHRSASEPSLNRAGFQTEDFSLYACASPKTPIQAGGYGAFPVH

Legend:
Test in all cases: kinase-Nluc reporter destabilization hit call (1 = scored as downregulated) (binary); higher = compound decreases kinase abundance
Conditions in all cases: K562; 2-18 h
[1] = molecular target: ABL1 (UniProt P00519)
[2] = molecular target: AKT1 (UniProt P31749)
[3] = molecular target: ALK (UniProt Q9UM73)
[4] = molecular target: ARAF (UniProt P10398)
[5] = molecular target: AURKA (UniProt O14965)
[6] = molecular target: AURKB (UniProt Q96GD4)
[7] = molecular target: AURKC (UniProt Q9UQB9)
[8] = molecular target: BLK (UniProt P51451)
[9] = molecular target: BMX (UniProt P51813)
[10] = molecular target: BRAF (UniProt P15056)

Measured: kinase-Nluc reporter destabilization hit call

NC(=O)c1cccc2c(N[C@H](CN3CCC3)c3ccc(Cl)c(C(F)(F)F)c3)ncnc12 (10 µM)
inactive: [1] 0 | [2] 0 | [3] 0 | [4] 0 | [5] 0 | [6] 0 | [7] 0 | [8] 0 | [9] 0 | [10] 0

CN1CCC(c2ccccc2CC(C)(C)Nc2nc(N3CCOCC3)nc(-n3c(S(C)(=O)=O)nc4ccccc43)n2)CC1 (10 µM)
inactive: [1] 0 | [2] 0 | [3] 0 | [4] 0 | [5] 0 | [6] 0 | [7] 0 | [8] 0 | [9] 0 | [10] 0

CC(C)=C/C=C1\O[C@@H]2CC(C)=CC(=O)[C@@H]2[C@]1(C)O [Bisabolangelone] (10 µM)
inactive: [1] 0 | [2] 0 | [3] 0 | [4] 0 | [5] 0 | [6] 0 | [7] 0 | [8] 0 | [9] 0 | [10] 0

CC(=O)c1cc(O)ccc1O [2,5-Dihydroxyacetophenone] (10 µM)
inactive: [1] 0 | [2] 0 | [3] 0 | [4] 0 | [5] 0 | [6] 0 | [7] 0 | [8] 0 | [9] 0 | [10] 0

Clc1ccc(Nc2cccc(-c3cn[nH]c3)c2)cc1 (10 µM)
inactive: [1] 0 | [2] 0 | [3] 0 | [4] 0 | [5] 0 | [6] 0 | [7] 0 | [8] 0 | [9] 0 | [10] 0

CNC(=O)c1c(C)oc2cc(Oc3ncnc4cc(OC)c(OC)cc34)ccc12 [Fruquintinib] (10 µM)
inactive: [1] 0 | [2] 0 | [3] 0 | [4] 0 | [5] 0 | [6] 0 | [7] 0 | [8] 0 | [9] 0 | [10] 0
